These are yes or no findings as the source states them, for the method shown. In cells and extracts the contact can be indirect. Some results given as binding are weak or reduced against the parent protein; the word gives no strength.
Experiments:
[1] = target: GFP tagged glucocorticoid receptor (GFP-GR) (UniProt P04150); test: co-IP; HEK293T cells (5 x 10^6) co-transfected (5 ug each plasmid, 48 h), lysed in RIPA buffer, precleared with Protein G Plus agarose; anti-GR or anti-CX43 (1:200) at 4 C overnight, Protein G agarose, washed with PBS; western blot
[2] = target: FLAG tagged glucocorticoid receptor (GR) (UniProt P04150); test: as above

The chains behind the UniProt entries cited, without tags or fusion partners.
UniProt P04150: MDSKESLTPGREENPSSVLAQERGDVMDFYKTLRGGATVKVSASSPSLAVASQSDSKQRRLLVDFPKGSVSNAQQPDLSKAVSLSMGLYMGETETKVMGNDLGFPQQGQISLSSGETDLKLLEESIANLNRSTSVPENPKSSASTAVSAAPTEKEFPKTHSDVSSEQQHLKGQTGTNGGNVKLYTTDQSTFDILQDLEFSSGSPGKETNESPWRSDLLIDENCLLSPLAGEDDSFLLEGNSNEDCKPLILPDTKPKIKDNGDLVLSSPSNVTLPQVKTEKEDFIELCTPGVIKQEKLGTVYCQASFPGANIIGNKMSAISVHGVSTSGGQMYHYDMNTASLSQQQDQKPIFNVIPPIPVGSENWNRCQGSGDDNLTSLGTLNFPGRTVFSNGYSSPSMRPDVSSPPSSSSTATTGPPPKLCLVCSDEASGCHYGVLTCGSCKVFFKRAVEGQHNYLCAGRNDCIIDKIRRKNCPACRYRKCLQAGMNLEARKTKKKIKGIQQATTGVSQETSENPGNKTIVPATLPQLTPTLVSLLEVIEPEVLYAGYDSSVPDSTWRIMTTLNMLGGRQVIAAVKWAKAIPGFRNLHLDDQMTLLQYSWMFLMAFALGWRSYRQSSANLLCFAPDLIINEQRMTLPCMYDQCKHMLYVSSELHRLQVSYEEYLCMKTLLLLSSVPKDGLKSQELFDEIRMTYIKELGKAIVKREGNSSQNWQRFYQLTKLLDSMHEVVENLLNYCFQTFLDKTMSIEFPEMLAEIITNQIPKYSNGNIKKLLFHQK
UniProt P17302: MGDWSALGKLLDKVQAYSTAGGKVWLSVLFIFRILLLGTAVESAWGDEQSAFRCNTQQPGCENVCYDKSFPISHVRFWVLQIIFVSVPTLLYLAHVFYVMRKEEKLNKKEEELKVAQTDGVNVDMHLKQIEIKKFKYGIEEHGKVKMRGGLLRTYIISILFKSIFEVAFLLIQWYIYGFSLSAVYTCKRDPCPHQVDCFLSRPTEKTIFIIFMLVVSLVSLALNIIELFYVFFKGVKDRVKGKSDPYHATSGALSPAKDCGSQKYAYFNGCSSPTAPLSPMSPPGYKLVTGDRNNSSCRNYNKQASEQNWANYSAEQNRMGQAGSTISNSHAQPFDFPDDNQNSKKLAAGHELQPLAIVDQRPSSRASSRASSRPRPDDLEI

binding [1]	binding [2]	Substance
binds		FLAG tagged connexin 43 (FLAG-CX43) (from UniProt P17302 1-382)
	binds	connexin 43 (CX43), untagged, overexpressed (from UniProt P17302 1-382)

— paper PMC8805874
